## Assay results

The results are deposited in PubChem (AID1053133; Broad Institute, 2014).

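Vaccinia-infected cells with a two-color viral stage reporter; Venus fluorescence read on a plate reader; the cell line is not named here; timing not stated here. The test concentration is not given here. Percent change in Venus reporter signal; lower (more negative) values mean stronger inhibition of that viral stage.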

Values are in %. How 0% and 100% were set is not given here. Common to all entries: measured here: Venus reporter, other viral stage. This is a side read-out of the assay, for part of the compounds, not drawn at random.

{"smiles": "N#C[C@H]1[C@H](c2ccc(C#Cc3ccccc3F)cc2)[C@H](CO)N1C(=O)C1CCCC1", "activity change (Venus) (%)": "-27.18"}
{"smiles": "CCC(=O)N1CCCCN2[C@H](C1)[C@H](c1ccc(/C=C/c3ccccc3)cc1)[C@@H]2CO", "activity change (Venus) (%)": "-59.48"}
{"smiles": "C[C@@H]1CN([C@H](C)CO)C(=O)c2cc(NC(=O)c3ccccc3)ccc2O[C@@H](C)CCCCO[C@H]1CN(C)Cc1ccc2c(c1)OCO2", "activity change (Venus) (%)": "-47.74"}
{"smiles": "C[C@H](CO)N1C[C@H](C)[C@H](CN(C)C(=O)Nc2ccc(F)cc2)Oc2ncc(C#Cc3ccc(C(F)(F)F)cc3)cc2C1=O", "activity change (Venus) (%)": "-70.22"}
{"smiles": "COC(=O)[C@@H]1[C@@H](CO)[C@@H]2Cn3c(ccc(C4=CCCCC4)c3=O)[C@H]1N2CC1CCCCC1", "activity change (Venus) (%)": "-38.86"}
{"smiles": "Cc1ccc(S(=O)(=O)Nc2ccc3c(c2)C(=O)N([C@H](C)CO)C[C@H](C)[C@@H](CN(C)C(=O)C2CCCCC2)OCCCC[C@H](C)O3)cc1", "activity change (Venus) (%)": "-43.53"}
{"smiles": "O=C(C[C@@H]1CC[C@H]2[C@@H](COC[C@H](O)CN2S(=O)(=O)c2ccc(Oc3ccccc3)cc2)O1)Nc1ccccc1", "activity change (Venus) (%)": "-34.56"}
{"smiles": "C[C@@H]1CN([C@@H](C)CO)C(=O)c2cccc(NC(=O)Nc3ccccc3)c2O[C@H]1CN(C)Cc1ccc(C(F)(F)F)cc1", "activity change (Venus) (%)": "-22.54"}
{"smiles": "COc1cccc(S(=O)(=O)N(C)C[C@@H]2Oc3cc(C4=CCCC4)ccc3S(=O)(=O)N([C@H](C)CO)C[C@@H]2C)c1", "activity change (Venus) (%)": "-32.32"}
{"smiles": "O=C(C[C@@H]1CC[C@H]2[C@@H](COC[C@@H](O)CN2C(=O)Nc2ccc(Cl)c(Cl)c2)O1)NCc1ccc(Cl)c(Cl)c1", "activity change (Venus) (%)": "-83.32"}
{"smiles": "C[C@@H]1CN([C@@H](C)CO)C(=O)c2cc(NS(=O)(=O)c3cccs3)ccc2O[C@@H](C)CCCCO[C@@H]1CN(C)C(=O)Nc1ccc(C(F)(F)F)cc1", "activity change (Venus) (%)": "-39.81"}
{"smiles": "Cc1ccc(-c2ccc3c(c2)O[C@H](CN(C)C(=O)Nc2ccc(C(F)(F)F)cc2)[C@H](C)CN([C@H](C)CO)S3(=O)=O)cc1", "activity change (Venus) (%)": "-66.45"}
{"smiles": "COc1ccccc1NC(=O)N1CCCCN2[C@@H](CO)[C@H](c3ccc(C#CC4CCCC4)cc3)[C@@H]2C1", "activity change (Venus) (%)": "-52.28"}
{"smiles": "C[C@@H]1CCCCO[C@@H](CN(C)Cc2ccccc2)[C@H](C)CN([C@H](C)CO)C(=O)c2cc(NC(=O)Nc3ccc4c(c3)OCO4)ccc2O1", "activity change (Venus) (%)": "-46.5"}
{"smiles": "C[C@@H]1CCCCO[C@@H](CN(C)S(=O)(=O)c2ccc(F)cc2)[C@H](C)CN([C@H](C)CO)C(=O)c2cc(NC(=O)C3CCCCC3)ccc2O1", "activity change (Venus) (%)": "-28.99"}
{"smiles": "CC(C)C#Cc1ccc([C@@H]2[C@H](CO)N3CCCCN(C(=O)Nc4ccccc4)C[C@@H]23)cc1", "activity change (Venus) (%)": "-62.32"}
{"smiles": "COCC#Cc1ccc([C@@H]2[C@H]3CN(S(=O)(=O)c4ccccc4C)CCCCN3[C@H]2CO)cc1", "activity change (Venus) (%)": "-35.88"}
{"smiles": "COc1ccccc1NC(=O)N1CCCCN2[C@H](CO)[C@@H](c3ccc(C#Cc4ccccc4)cc3)[C@H]2C1", "activity change (Venus) (%)": "-35.75"}
{"smiles": "COc1cccc(-c2ccc3c(c2)O[C@@H](CN(C)C(=O)C2CCCCC2)[C@H](C)CN([C@H](C)CO)S3(=O)=O)c1", "activity change (Venus) (%)": "-67.61"}
{"smiles": "N#C[C@@H]1[C@H](c2ccc(C3=CCCCC3)cc2)[C@@H](CO)N1C(=O)NC1CCCCC1", "activity change (Venus) (%)": "-34.4"}
{"smiles": "C[C@H](CO)N1C[C@H](C)[C@H](CN(C)C(=O)Nc2ccccc2)Oc2ncc(C#Cc3ccc(C(F)(F)F)cc3)cc2C1=O", "activity change (Venus) (%)": "-52.99"}
{"smiles": "O=C1C[C@@](C(=O)NCC(F)(F)F)(c2ccc([N+](=O)[O-])cc2)[C@@H](c2ccc(CO)cc2I)N1C1CCCCC1", "activity change (Venus) (%)": "-38.54"}
{"smiles": "COc1ccccc1C#Cc1ccc2c(c1)O[C@@H](CN(C)Cc1cncnc1)[C@H](C)CN([C@@H](C)CO)S2(=O)=O", "activity change (Venus) (%)": "-27.87"}
{"smiles": "C[C@H](CO)N1C[C@H](C)[C@H](CN(C)C(=O)CCN(C)C)OCc2ccccc2-c2c(n(C)c3ccccc23)C1=O", "activity change (Venus) (%)": "-69.81"}
{"smiles": "C[C@H]1CCCCO[C@H](CN(C)CC2CCCCC2)[C@@H](C)CN([C@@H](C)CO)C(=O)c2cc(NC(=O)Nc3ccc4c(c3)OCO4)ccc2O1", "activity change (Venus) (%)": "-35.22"}
{"smiles": "C[C@@H]1CN([C@@H](C)CO)C(=O)Cc2cc(NC(=O)Nc3ccc4c(c3)OCO4)ccc2O[C@@H]1CN(C)Cc1ccc(C(F)(F)F)cc1", "activity change (Venus) (%)": "-25.11"}
{"smiles": "C[C@H](CO)N1C[C@H](C)[C@@H](CN(C)C(=O)NC2CCCCC2)Oc2cc(/C=C/c3ccccc3)ccc2S1(=O)=O", "activity change (Venus) (%)": "-28.06"}
{"smiles": "C[C@H]1CN([C@@H](C)CO)S(=O)(=O)c2ccc(C#Cc3ccccc3F)cc2O[C@@H]1CN(C)CC1CCOCC1", "activity change (Venus) (%)": "-66.08"}
{"smiles": "COc1ccccc1CN1CC2(C1)[C@H](c1ccccc1)[C@@H](CO)N2Cc1ccccc1", "activity change (Venus) (%)": "-25.9"}
{"smiles": "C[C@@H]1CCCCO[C@@H](CN(C)Cc2ccc(Cl)c(Cl)c2)[C@H](C)CN([C@@H](C)CO)C(=O)c2cc(NS(=O)(=O)c3ccc(F)cc3)ccc2O1", "activity change (Venus) (%)": "-37.38"}
{"smiles": "C[C@@H]1CCCCO[C@@H](CN(C)S(=O)(=O)c2ccccc2)[C@H](C)CN([C@@H](C)CO)C(=O)c2cc(NS(=O)(=O)c3ccccc3)ccc2O1", "activity change (Venus) (%)": "-45.59"}
{"smiles": "Cc1noc(C)c1NC(=O)N(C)C[C@@H]1Oc2cc(C#CCC3CCCC3)ccc2S(=O)(=O)N([C@H](C)CO)C[C@H]1C", "activity change (Venus) (%)": "-53.03"}
{"smiles": "COCC(=O)N1CC2(CCN(Cc3ccccc3Cl)CC2)c2c([nH]c3cc(OC)ccc23)[C@@H]1CO", "activity change (Venus) (%)": "-41.44"}
{"smiles": "COC(=O)[C@]1(Cc2ccccc2)N=C(c2ccc(OCCCO)cc2)O[C@@H]1c1ccccc1N=[N+]=[N-]", "activity change (Venus) (%)": "-58.51"}
{"smiles": "CC(C)CC#Cc1cnc2c(c1)C(=O)N([C@@H](C)CO)C[C@@H](C)[C@H](CN(C)C(=O)c1ccc3c(c1)OCO3)O2", "activity change (Venus) (%)": "-23.61"}
{"smiles": "Cc1ccccc1-c1ccc(C2[C@@H]3CN(S(=O)(=O)c4cn(C)cn4)C[C@H]2N3)cc1", "stereo": "stereo partly specified", "activity change (Venus) (%)": "-56.63"}